The test system of this test is Plasmodium falciparum 3D7. The experiment in a line: microbe, parasite or virus in culture. The settings on record: read-out: Percentage inhibition of the growth of Plasmodium falciparum. The method, then:
Growth inhibition was quantified using a fluorescence assay utilizing the binding of SYBR Green I to double stranded DNA, which emits a fluorescent signal at 528 nm after excitation at 485 nm. The SYBR Green assay system was adapted to maximize robustness and to align with available automation systems. The Prestwick Library then used as a pilot screen to validate the performance of the optimized assay. […] Single point screens were carried out, and the potency of compounds of interest was determined in duplicate on two independent occasions. A 96-well [^3H]-Hypoxanthine incorporation assay was also developed as a secondary assay in order to validate key compounds from each hit series in an orthogonal platform.
All data were processed using IDBS ActivityBase. […] The formula used to calculate Z’ is 1-3×(StDev_high+StDev_low)/ABS(Mean_high-Mean_low) .
Two independent assays were run.

Drawing on publication PMC5678585, “Screening a protein kinase inhibitor library against Plasmodium falciparum” (Malaria Journal, 2017), this text covers inhibition for one compound.

Regarding `CC(C)(C)CC(C)(C)c1ccc(OCCOCC[N+](C)(C)Cc2ccccc2)cc1` [Benzethonium chloride], the inhibition at 4 µM came out at 102.5 ± 0.7%.

One may read the inhibition as the drop in the measured response relative to a control, in per cent.
